Results deposited as PubChem BioAssay AID1224828 (NIAID, 2016).

Test: 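Knock-downs that increase or decrease LPS-induced p65 nuclear translocation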 (primary screen)
Cell system: mouse RAW264.7 G9 macrophage reporter cells (GFP-p65, Tnf promoter-mCherry)
Reagents: siRNA pool against mouse genes, 100 nM
Time to read-out: 2 days siRNA transfection, then 40 min LPS before fixation
Conditions: LPS (Salmonella minnesota R595) at 10 ng/ml
Measured: 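Microscopy ratio of nuclear to perinuclear-ring GFP-p65 signal, scaled to the plate median; gene score is the average of two replicate robust z-scores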
Scale: p65 translocation robust z-score: higher = more nuclear NF-kappaB p65 after LPS than the plate median; nuclear/cytoplasmic p65 ratio: higher = more nuclear NF-kappaB p65
Hit rule: 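Active if robust z is above 3.3 (negative regulators) or below -1.56, the Tlr4 control median (positive regulators); activity score 50 or more; control wells not called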
Meaning of the calls: active = hit (p65 shift raised or lowered); inactive = no clear change
This is one part, drawn at random, of about 17,000 reagents. 762 of them (4.5%) count as active. 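Active calls include both raised and lowered p65 entry, mostly lowered; wells with fewer than 50 cells lack a z-score.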 Raw values vary from plate to plate and are shown uncorrected. Entries without a mark were called inactive. Reagents against one gene are numbered here.

Target gene	pool no.	p65 translocation robust z-score	nuclear/cytoplasmic p65 ratio, rep 1	nuclear/cytoplasmic p65 ratio, rep 2	low cell count flag
Rbpms (RNA binding protein gene with multiple splicing)	1	1.66	1.71	1.35	enough cells to score
Glod5 (glyoxalase domain containing 5)	1		1.31	1.37	fewer than 50 cells per well; well left out of scoring
Nat8f3 (N-acetyltransferase 8 (GCN5-related) family member 3)	1	-0.16	1.6	1.72	enough cells to score
Gap43 (growth associated protein 43)	1	-0.94	1.57	1.24	enough cells to score
Atp5f1d (ATP synthase F1 subunit delta)	1		1.09	1.29	fewer than 50 cells per well; well left out of scoring
Slc6a12	1	2.92	1.78	1.6	enough cells to score
Ube2t (ubiquitin-conjugating enzyme E2T)	1	2.28	1.81	2.1	enough cells to score
Heatr1 (HEAT repeat containing 1)	1	-0.07	1.54	1.87	enough cells to score
Traf7 (TNF receptor-associated factor 7)	1	1.1	1.6	1.31	enough cells to score
4930433N12Rik (RIKEN cDNA 4930433N12 gene)	1		1.23	1.25	fewer than 50 cells per well; well left out of scoring
Kif2a (kinesin family member 2A)	1	0.12	1.54	1.35	enough cells to score
Alcam (activated leukocyte cell adhesion molecule)	1	0.31	1.65	1.68	enough cells to score
Atg2b (autophagy related 2B)	1	1.72	1.73	1.59	enough cells to score
Atg2b (autophagy related 2B)	2	-0.12	1.57	1.77	enough cells to score
Vmn1r25 (vomeronasal 1 receptor 25)	1		1.5	1.35	fewer than 50 cells per well; well left out of scoring
Srp14 (signal recognition particle 14)	1	-0.25	1.4	1.2	enough cells to score
Irx6 (Iroquois homeobox 6)	1	-1.33	1.34	1.27	enough cells to score
Or2v2 (olfactory receptor family 2 subfamily V member 2)	1	-0.43	1.53	1.38	enough cells to score
Adcyap1 (adenylate cyclase activating polypeptide 1)	1	0.34	1.64	1.76	enough cells to score
Nfasc (neurofascin)	1	-0.33	1.67	1.59	enough cells to score
Gria2 (glutamate receptor, ionotropic, AMPA2 (alpha 2))	1	-0.01	1.37	1.43	enough cells to score
Dll1 (delta like canonical Notch ligand 1)	1	-0.61	1.5	1.2	enough cells to score
Pcdha10 (protocadherin alpha 10)	1	0.27	1.56	1.21	enough cells to score
Fbxw16 (F-box and WD-40 domain protein 16)	1		1.21	1.64	fewer than 50 cells per well; well left out of scoring
Fzd7 (frizzled class receptor 7)	1	-0.47	1.45	1.51	enough cells to score
Hmgn1 (high mobility group nucleosomal binding domain 1)	1	-0.86	1.27	1.31	enough cells to score
Ero1a (endoplasmic reticulum oxidoreductase 1 alpha)	1	-0.76	1.38	1.25	enough cells to score
Ptgr3 (prostaglandin reductase 3)	1		1.65	1.57	fewer than 50 cells per well; well left out of scoring
Traf1 (TNF receptor-associated factor 1)	1	1.29	1.64	1.74	enough cells to score
9430097D07Rik (RIKEN cDNA 9430097D07 gene)	1	-0.31	1.37	1.51	enough cells to score
Trappc3 (trafficking protein particle complex 3)	1		1.42	1.11	fewer than 50 cells per well; well left out of scoring
Dscc1	1		1.43	1.3	fewer than 50 cells per well; well left out of scoring
Scml4 (Scm polycomb group protein like 4)	1	-0.04	1.43	1.2	enough cells to score
Dhrs9 (dehydrogenase/reductase 9)	1	-0.28	1.57	1.46	enough cells to score
Eif5a2 (eukaryotic translation initiation factor 5A2)	1	0.23	1.49	1.35	enough cells to score
Ncoa3 (nuclear receptor coactivator 3)	1	-0.49	1.36	1.3	enough cells to score
Osbpl8 (oxysterol binding protein-like 8)	1	-0.26	1.37	1.24	enough cells to score
Sycp2 (synaptonemal complex protein 2)	1		1.32	1.1	fewer than 50 cells per well; well left out of scoring
Semg1 (semenogelin 1)	1	0.09	1.37	1.29	enough cells to score
Retnlg (resistin like gamma)	1	0.06	1.38	1.27	enough cells to score
Tlr11 (toll-like receptor 11)	1	-0.16	1.38	1.17	enough cells to score
Cyp2c23 (cytochrome P450, family 2, subfamily c, polypeptide 23)	1	-1.91 (active)	1.23	1.6	enough cells to score
Gpr22 (G protein-coupled receptor 22)	1	-1.56	1.3	1.36	enough cells to score
Zmiz1 (zinc finger, MIZ-type containing 1)	1	-0.12	1.51	1.41	enough cells to score
Paqr3 (progestin and adipoQ receptor family member III)	1	0.22	1.67	1.62	enough cells to score
Trp53bp1 (transformation related protein 53 binding protein 1)	1	0.51	1.56	1.6	enough cells to score
Wdtc1 (WD and tetratricopeptide repeats 1)	1	-1.68 (active)	1.48	1.32	enough cells to score
Utp20 (UTP20 small subunit processome component)	1	-0.84	1.43	1.54	enough cells to score
Cep83os (centrosomal protein 83, opposite strand)	1		1.52	1.25	fewer than 50 cells per well; well left out of scoring
Rpl19 (ribosomal protein L19)	1		1.06	1.09	fewer than 50 cells per well; well left out of scoring
Evc (EvC ciliary complex subunit 1)	1	-1.08	1.33	1.22	enough cells to score
Hat1 (histone aminotransferase 1)	1	0.07	1.4	1.43	enough cells to score
H2bc6 (H2B clustered histone 6)	1	1.36	1.74	1.62	enough cells to score
Tll2 (tolloid-like 2)	1		1.12	1.01	fewer than 50 cells per well; well left out of scoring
Rbm18 (RNA binding motif protein 18)	1	1.44	1.59	1.4	enough cells to score
Acadvl (acyl-Coenzyme A dehydrogenase, very long chain)	1	-0.25	1.57	1.59	enough cells to score
Rack1 (receptor for activated C kinase 1)	1	-0.89	1.29	1.28	enough cells to score
Nmnat2 (nicotinamide nucleotide adenylyltransferase 2)	1	4.48 (active)	2.11	2.65	enough cells to score
Gimap3 (GTPase, IMAP family member 3)	1	-2.17 (active)	1.28	1.11	enough cells to score

Only “low cell count flag”, for 5 of the entries above:
Gpr22 (G protein-coupled receptor 22): enough cells to score
Zmiz1 (zinc finger, MIZ-type containing 1): enough cells to score
Paqr3 (progestin and adipoQ receptor family member III): enough cells to score
Trp53bp1 (transformation related protein 53 binding protein 1): enough cells to score
Wdtc1 (WD and tetratricopeptide repeats 1): enough cells to score (active)
